Data taken from article doi:10.1101/2023.04.19.537590.
No constants are given. Whether binding was seen depends on the method and setting. Binding seen in cells or lysates may run through a third protein. Binding can be weak; no strength is given.

Molecular target: T1, protein phosphatase 1 regulatory subunit 12C (in HL-1 cells) (mouse (endogenous in HL-1)) (UniProt Q3UMT1)
T1 sequence: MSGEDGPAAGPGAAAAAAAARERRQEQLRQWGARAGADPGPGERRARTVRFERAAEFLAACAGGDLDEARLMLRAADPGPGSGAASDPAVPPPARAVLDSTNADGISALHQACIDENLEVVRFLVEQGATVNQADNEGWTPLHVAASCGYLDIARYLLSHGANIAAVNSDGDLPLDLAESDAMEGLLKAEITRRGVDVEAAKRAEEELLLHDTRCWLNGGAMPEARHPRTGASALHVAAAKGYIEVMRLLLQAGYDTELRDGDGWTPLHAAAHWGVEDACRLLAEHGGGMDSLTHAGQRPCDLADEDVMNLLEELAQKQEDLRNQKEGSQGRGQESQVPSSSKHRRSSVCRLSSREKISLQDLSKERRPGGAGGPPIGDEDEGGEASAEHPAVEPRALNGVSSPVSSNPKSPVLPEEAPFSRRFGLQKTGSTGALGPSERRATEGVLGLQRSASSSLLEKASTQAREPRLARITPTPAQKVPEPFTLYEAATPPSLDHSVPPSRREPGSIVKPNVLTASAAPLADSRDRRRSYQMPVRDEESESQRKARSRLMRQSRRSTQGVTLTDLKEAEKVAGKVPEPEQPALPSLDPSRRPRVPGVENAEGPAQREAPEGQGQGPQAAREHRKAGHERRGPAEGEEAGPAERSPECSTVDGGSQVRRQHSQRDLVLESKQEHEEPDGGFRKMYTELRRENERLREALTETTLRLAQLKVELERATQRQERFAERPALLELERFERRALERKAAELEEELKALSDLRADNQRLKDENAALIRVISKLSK
Test: co-IP

“protein phosphatase 1 catalytic subunit (in HL-1 cells) (mouse (endogenous in HL-1)) (enzyme)” was tested, and the binding was “binds”.
